Results are given in words; binding and its absence hold for the method and conditions named. In cells and extracts the contact can be indirect. Binding can be weak; no strength is given. Tags and fused reporters may be left off the sequences shown.
T1: GST-Esc2 (S. cerevisiae) (UniProt Q06340)
T1 sequence: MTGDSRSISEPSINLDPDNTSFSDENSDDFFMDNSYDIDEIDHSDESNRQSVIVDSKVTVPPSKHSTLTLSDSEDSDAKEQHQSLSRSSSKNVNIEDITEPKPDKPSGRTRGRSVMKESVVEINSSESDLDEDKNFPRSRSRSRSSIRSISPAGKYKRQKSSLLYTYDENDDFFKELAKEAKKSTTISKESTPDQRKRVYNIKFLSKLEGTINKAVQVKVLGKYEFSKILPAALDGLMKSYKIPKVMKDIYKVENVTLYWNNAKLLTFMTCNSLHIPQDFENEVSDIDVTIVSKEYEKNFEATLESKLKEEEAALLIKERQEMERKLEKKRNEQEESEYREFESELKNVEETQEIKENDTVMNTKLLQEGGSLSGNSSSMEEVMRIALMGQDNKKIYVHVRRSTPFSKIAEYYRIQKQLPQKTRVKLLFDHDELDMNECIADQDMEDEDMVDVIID

Amino acid sequences for entries named in this document (tags omitted). A change or cut given only in a name is not applied to a line headed by its entry.
UniProt P12954: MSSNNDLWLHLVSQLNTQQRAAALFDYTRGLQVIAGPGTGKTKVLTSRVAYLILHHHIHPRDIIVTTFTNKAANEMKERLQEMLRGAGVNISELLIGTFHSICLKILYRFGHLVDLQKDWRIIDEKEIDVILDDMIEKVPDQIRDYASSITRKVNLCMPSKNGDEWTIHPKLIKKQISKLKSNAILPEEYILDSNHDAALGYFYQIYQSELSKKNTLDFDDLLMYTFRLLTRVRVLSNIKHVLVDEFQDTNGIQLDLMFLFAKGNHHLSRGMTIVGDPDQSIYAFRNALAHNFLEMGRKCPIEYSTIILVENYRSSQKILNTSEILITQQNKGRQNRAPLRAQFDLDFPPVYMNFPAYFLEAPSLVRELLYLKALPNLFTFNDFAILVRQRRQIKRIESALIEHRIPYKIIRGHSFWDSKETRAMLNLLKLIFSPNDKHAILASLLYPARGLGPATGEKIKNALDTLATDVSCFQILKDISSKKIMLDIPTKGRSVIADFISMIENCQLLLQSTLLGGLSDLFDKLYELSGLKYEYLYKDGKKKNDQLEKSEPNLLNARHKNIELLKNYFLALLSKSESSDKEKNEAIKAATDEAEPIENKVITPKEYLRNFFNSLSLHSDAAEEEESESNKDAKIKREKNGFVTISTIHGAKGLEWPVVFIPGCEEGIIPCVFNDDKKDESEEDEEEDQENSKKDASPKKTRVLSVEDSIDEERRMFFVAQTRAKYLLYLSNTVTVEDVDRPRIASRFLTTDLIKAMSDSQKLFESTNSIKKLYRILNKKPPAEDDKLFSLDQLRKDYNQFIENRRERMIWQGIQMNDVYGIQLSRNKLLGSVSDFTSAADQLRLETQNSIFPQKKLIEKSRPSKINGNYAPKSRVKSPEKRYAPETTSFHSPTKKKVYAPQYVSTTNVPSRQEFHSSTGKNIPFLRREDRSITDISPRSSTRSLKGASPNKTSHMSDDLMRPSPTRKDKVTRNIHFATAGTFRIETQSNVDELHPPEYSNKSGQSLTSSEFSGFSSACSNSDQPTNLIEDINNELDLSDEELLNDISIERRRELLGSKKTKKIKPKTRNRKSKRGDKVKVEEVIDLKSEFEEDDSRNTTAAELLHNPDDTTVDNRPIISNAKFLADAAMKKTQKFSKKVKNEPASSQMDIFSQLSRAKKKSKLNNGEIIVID
UniProt Q12050: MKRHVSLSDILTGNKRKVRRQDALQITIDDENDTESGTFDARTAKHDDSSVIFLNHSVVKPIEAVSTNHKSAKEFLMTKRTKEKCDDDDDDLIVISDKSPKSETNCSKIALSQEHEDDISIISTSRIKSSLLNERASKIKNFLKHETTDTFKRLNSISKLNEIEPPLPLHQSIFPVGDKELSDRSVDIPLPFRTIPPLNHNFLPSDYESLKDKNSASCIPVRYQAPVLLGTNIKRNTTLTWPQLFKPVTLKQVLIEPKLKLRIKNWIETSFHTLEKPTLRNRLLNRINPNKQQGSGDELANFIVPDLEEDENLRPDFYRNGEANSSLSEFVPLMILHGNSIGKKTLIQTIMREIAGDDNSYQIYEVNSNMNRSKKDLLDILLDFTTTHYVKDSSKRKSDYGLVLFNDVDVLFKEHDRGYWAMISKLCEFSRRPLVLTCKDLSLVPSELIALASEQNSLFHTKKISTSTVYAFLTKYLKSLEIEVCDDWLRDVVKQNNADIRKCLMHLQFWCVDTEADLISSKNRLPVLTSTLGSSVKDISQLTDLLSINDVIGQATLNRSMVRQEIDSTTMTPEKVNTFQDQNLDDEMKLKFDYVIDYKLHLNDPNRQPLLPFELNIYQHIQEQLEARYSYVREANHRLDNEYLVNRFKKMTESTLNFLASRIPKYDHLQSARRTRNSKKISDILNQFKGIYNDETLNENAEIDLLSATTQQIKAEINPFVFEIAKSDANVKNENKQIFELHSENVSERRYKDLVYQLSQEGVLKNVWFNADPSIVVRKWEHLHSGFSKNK


How the values were obtained:
GST-Esc2 (S. cerevisiae) = target: T1, GST-Esc2 (S. cerevisiae); experiment: pull-down; 'in vivo pull-down': purified recombinant GST-Esc2 (wild type or mutants) with total yeast cell lysate, with or without ethidium bromide; complexes on the beads analysed by protein blotting; only the target purified
[1] = target: GST-Srs2ΔN (S. cerevisiae) (UniProt P12954); experiment: pull-down; 'in vivo pull-down': purified recombinant GST-Srs2ΔN variants with total yeast cell lysate; protein blotting; only the target purified

| binding (GST-Esc2 (S. cerevisiae)) | binding [1] | Molecule |
| --- | --- | --- |
| binds | – | Elg1-PIP variant (Flag-tagged) (from UniProt Q12050) |
| – | binds | Slx5 (protein, UniProt P32828 1-619) MHSDTNGRTKSNNSPSDNNPNETVILIDSDKEEDASIREANLPVRLYPDRRVGRRRDALNRFVRSDSRSRNSQRTHITASSERPDFQANNDDITIIREVGRFFGDDGPIDPSAHYVDLDQEPGSETLETPRTIQVDNTNGYLNDNGNNNESDDGLTIVEERTTRPRVTLNLPGGERLEVTATTTDIPIRRSFEFQEDLGASRRQLLRRSATRARNLFVDRSDENDEDWTDDTHNLPEAIQRARRESRMRMSRRIAERQRRVQQQRVSSDENISTSIRLQSIRERIQSYTPDIRSAFHRAESLHEFRSILQNVAPITLQECEEELMALFTEFRNQLLQNWAIDRVRNTQEEALRLHREALERQERTAGRVFHRGTLRESITNYLNFNGEDGFLSRLWSGPALSDADEERHTQNIIDMIQEREERERDVVMKNLMNKTRAQQEEFEARAASLPEGYSASFDTTPKMKLDITKNGKEETIIVTDDDLAKTLEDIPVCCLCGAELGVGIPDDFTGISQKDRGVSFEGLVSKYKFHCPYQTLARPSMLDRDLSKRTFIASCGHAFCGRCFARIDNAKKKSKMPKKKLAQLKGSAHPDNYGPKLCPADSCKKLIRSRGRLKEVYF |
| – | binds | Esc2-Flag (protein, UniProt Q06340 1-456) MTGDSRSISEPSINLDPDNTSFSDENSDDFFMDNSYDIDEIDHSDESNRQSVIVDSKVTVPPSKHSTLTLSDSEDSDAKEQHQSLSRSSSKNVNIEDITEPKPDKPSGRTRGRSVMKESVVEINSSESDLDEDKNFPRSRSRSRSSIRSISPAGKYKRQKSSLLYTYDENDDFFKELAKEAKKSTTISKESTPDQRKRVYNIKFLSKLEGTINKAVQVKVLGKYEFSKILPAALDGLMKSYKIPKVMKDIYKVENVTLYWNNAKLLTFMTCNSLHIPQDFENEVSDIDVTIVSKEYEKNFEATLESKLKEEEAALLIKERQEMERKLEKKRNEQEESEYREFESELKNVEETQEIKENDTVMNTKLLQEGGSLSGNSSSMEEVMRIALMGQDNKKIYVHVRRSTPFSKIAEYYRIQKQLPQKTRVKLLFDHDELDMNECIADQDMEDEDMVDVIID |
| – | binds | Esc2-Myc (protein, UniProt Q06340 1-456) MTGDSRSISEPSINLDPDNTSFSDENSDDFFMDNSYDIDEIDHSDESNRQSVIVDSKVTVPPSKHSTLTLSDSEDSDAKEQHQSLSRSSSKNVNIEDITEPKPDKPSGRTRGRSVMKESVVEINSSESDLDEDKNFPRSRSRSRSSIRSISPAGKYKRQKSSLLYTYDENDDFFKELAKEAKKSTTISKESTPDQRKRVYNIKFLSKLEGTINKAVQVKVLGKYEFSKILPAALDGLMKSYKIPKVMKDIYKVENVTLYWNNAKLLTFMTCNSLHIPQDFENEVSDIDVTIVSKEYEKNFEATLESKLKEEEAALLIKERQEMERKLEKKRNEQEESEYREFESELKNVEETQEIKENDTVMNTKLLQEGGSLSGNSSSMEEVMRIALMGQDNKKIYVHVRRSTPFSKIAEYYRIQKQLPQKTRVKLLFDHDELDMNECIADQDMEDEDMVDVIID |
